From article PMC8580627
These are yes or no findings as the source states them, for the method shown. In cells and extracts the contact can be indirect.

Protein sequences, listed by entry. Tags and fused reporters are not part of them.
UniProt Q96EB6: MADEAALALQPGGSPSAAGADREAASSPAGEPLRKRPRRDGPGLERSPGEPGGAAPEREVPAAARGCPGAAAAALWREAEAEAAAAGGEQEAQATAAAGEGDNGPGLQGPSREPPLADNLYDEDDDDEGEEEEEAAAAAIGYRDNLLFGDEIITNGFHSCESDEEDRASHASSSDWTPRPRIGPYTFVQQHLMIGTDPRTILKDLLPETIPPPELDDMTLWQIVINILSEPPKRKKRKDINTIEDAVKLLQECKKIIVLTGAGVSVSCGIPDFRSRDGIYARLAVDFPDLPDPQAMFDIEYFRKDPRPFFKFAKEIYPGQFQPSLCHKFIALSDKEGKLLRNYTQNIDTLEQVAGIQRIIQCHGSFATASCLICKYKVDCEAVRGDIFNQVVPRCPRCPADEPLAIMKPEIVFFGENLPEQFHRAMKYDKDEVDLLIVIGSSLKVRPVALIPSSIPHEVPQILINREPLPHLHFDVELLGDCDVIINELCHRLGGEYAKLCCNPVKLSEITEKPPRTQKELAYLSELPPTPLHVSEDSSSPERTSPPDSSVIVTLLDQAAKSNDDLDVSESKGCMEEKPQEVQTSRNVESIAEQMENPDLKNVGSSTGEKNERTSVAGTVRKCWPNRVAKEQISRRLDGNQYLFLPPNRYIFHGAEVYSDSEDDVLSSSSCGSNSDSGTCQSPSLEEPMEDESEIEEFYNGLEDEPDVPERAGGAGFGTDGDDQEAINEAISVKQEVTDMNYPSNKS

Target: Sirtuin-1 (SIRT1) (human) (UniProt Q96EB6)
Assay: co-IP; WI-38 whole cell lysates in RIPA buffer, sonicated, precleared with protein G agarose; 5 ul SIRT1 antibody, DRG2 antibody or normal IgG overnight at 4°C; captured on rProtein G agarose 4 h at 4°C; western blot

B1: developmentally regulated GTP-binding protein 2 (DRG2) (protein, UniProt P55039 1-364)
chain: MGILEKISEIEKEIARTQKNKATEYHLGLLKAKLAKYRAQLLEPSKSASSKGEGFDVMKSGDARVALIGFPSVGKSTFLSLMTSTASEAASYEFTTLTCIPGVIEYKGANIQLLDLPGIIEGAAQGKGRGRQVIAVARTADVIIMMLDATKGEVQRSLLEKELESVGIRLNKHKPNIYFKPKKGGGISFNSTVTLTQCSEKLVQLILHEYKIFNAEVLFREDCSPDEFIDVIVGNRVYMPCLYVYNKIDQISMEEVDRLARKPNSVVISCGMKLNLDYLLEMLWEYLALTCIYTKKRGQRPDFTDAIILRKGASVEHVCHRIHRSLASQFKYALVWGTSTKYSPQRVGLTHTMEHEDVIQIVKK
  binding: no binding
